PubChem BioAssay AID1508588 – Peter MacCallum Cancer Centre, 2020
Aim: 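Genome-wide search for knock-downs that heighten vemurafenib action in melanoma cells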 (primary screen). Cell system: human WM266.4 melanoma cells (BRAF V600 mutant). Reagent: siRNA pool against human genes, 40 nM. Timing: 96 h from transfection to read-out. Treatment: vemurafenib 300 nM (about IC25), added 48 h after transfection, for 48 h; comparison arm got DMSO vehicle only. Read-out: 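Ratios to non-targeting siRNA for cell gain, counted as DAPI nuclei after minus before drug and averaged over two replicates, and for absorbance-read medium lactate per cell; both binned into fold-change classes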. Direction: cell gain with vemurafenib: higher = more cell gain than with non-targeting siRNA; lactate per cell with vemurafenib: higher = more lactate made per cell. Active means: 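Enhancement is called by pairing each knock-down's vehicle-arm and drug-arm fold-change classes for viability or glycolysis; which class combinations qualify is not given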. Calls: active = enhances vemurafenib effect; inactive = no enhancement seen.
The whole screen tested about 18,000 reagents; this is a random part of them. In the full data, 790 (4.4%) got an active call. 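Calls rest on a combination of fold-change classes in drug and vehicle arms, not all shown here.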 Entries without a mark were called inactive.

The opening 6 entries, ahead of the listing:
gene knocked down	cell gain with vemurafenib	lactate per cell with vemurafenib
SLIT3 (GeneID 6586)	0.46	0.92
ANKRD11 (GeneID 29123)	0.79	0.74
IL1B (GeneID 3553)	0.13	2.8
NRG2 (GeneID 9542)	0.37	1.52
RASEF (GeneID 158158)	0.73	0.64
RGS18 (GeneID 64407)	0.73	1

The listing, repeating the preview:
gene knocked down	cell gain with vemurafenib	lactate per cell with vemurafenib
SLIT3 (GeneID 6586)	0.46	0.92
ANKRD11 (GeneID 29123)	0.79	0.74
IL1B (GeneID 3553)	0.13	2.8
NRG2 (GeneID 9542)	0.37	1.52
RASEF (GeneID 158158)	0.73	0.64
RGS18 (GeneID 64407)	0.73	1
TRIP10 (GeneID 9322)	0.85	1.48
KRT33A (GeneID 3883)	0.23	0.86
RPL14 (GeneID 9045)	-0.1	1.38
DYRK1A (GeneID 1859)	1.28	0.66
IQGAP3 (GeneID 128239)	0.54	0.98
LRRC1 (GeneID 55227)	0.8	0.54
SPNS1 (GeneID 83985)	0.41	1.36
UFD1 (GeneID 7353)	0.48	1.17
SWAP70 (GeneID 23075)	0.49	0.7
CCK (GeneID 885)	0.44	0.96
ERI3 (GeneID 79033)	0.86	0.94
SPANXN5 (GeneID 494197)	0.52	1.68
MGRN1 (GeneID 23295)	1.06	1.02
RBM34 (GeneID 23029)	0.59	0.44
OR5H2 (GeneID 79310)	0.85	0.6
OR5B12 (GeneID 390191)	1.18	0.46
CGB5 (GeneID 93659)	0.47	0.96
TAF1 (GeneID 6872)	0.39	0.37
TMEM71 (GeneID 137835)	0.42	1.08
BTN2A1 (GeneID 11120)	0.39	1.4
PCDHA8 (GeneID 56140)	0.57	0.94
SNRPC (GeneID 6631)	0.14	1.4
LGALS1 (GeneID 3956)	0.29	1.25
DGKI (GeneID 9162)	1.18	0.77
TMEM150C (GeneID 441027)	0.96	0.56
GMIP (GeneID 51291)	1.21	0.35
SLC12A5 (GeneID 57468)	0.39 (active)	0.48
JMJD6 (GeneID 23210)	0.32	0.94
OR10H2 (GeneID 26538)	0.99	0.56
OR4C6 (GeneID 219432)	0.46	1.56
PLEKHG3 (GeneID 26030)	0.53	0.46
GRPR (GeneID 2925)	1.41	0.51
MACC1 (GeneID 346389)	0.53	0.36
SOX14 (GeneID 8403)	0.2	2.29
ZNF777 (GeneID 27153)	0.11	1.83
SNAPC5 (GeneID 10302)	0.33	2.08
ITGAX (GeneID 3687)	0.41	0.97
COL10A1 (GeneID 1300)	0.3	1.12
C11orf87 (GeneID 399947)	0.32	0.72
CNMD (GeneID 11061)	0.32	1.08
TIRAP (GeneID 114609)	0.92	0.62
SLC5A6 (GeneID 8884)	0.73	0.39
MAMDC4 (GeneID 158056)	0.85	2.13
ZNF780B (GeneID 163131)	0.51	1.5
BCL2L1 (GeneID 598)	0.79	1.75
H2AB3 (GeneID 83740)	0.52	1.31
FOLH1B (GeneID 219595)	0.13 (active)	0.53
FAM168A (GeneID 23201)	0.16	1.27
INTU (GeneID 27152)	0.61	0.7
TLCD1 (GeneID 116238)	0.63	0.76
KIF18A (GeneID 81930)	0.38	1.15
CGRRF1 (GeneID 10668)	0.78	0.74
CSKMT (GeneID 751071)	0.35 (active)	0.12
POU3F3 (GeneID 5455)	0.79	0.5
DNAI1 (GeneID 27019)	0.72	1.25
TRAM1 (GeneID 23471)	0.18 (active)	0.4
NOP10 (GeneID 55505)	0.9	0.69
KSR2 (GeneID 283455)	0.59	1.27
WIPF3 (GeneID 644150)	0.51	0.53
PLEKHJ1 (GeneID 55111)	0.23	1.75
PILRA (GeneID 29992)	0.51	0.91
CD2BP2 (GeneID 10421)	0.43	0.68
LRR1 (GeneID 122769)	0.66	1.08
ADH1C (GeneID 126)	0.57	0.35
ITGA7 (GeneID 3679)	0.27	1.96
ATXN2L (GeneID 11273)	0.74 (active)	0.1
KIF9 (GeneID 64147)	0.48	1.08
SLC36A3 (GeneID 285641)	0.58	1.51
CLCN3 (GeneID 1182)	0.81	0.36
ILKAP (GeneID 80895)	0.72	1.23
ZKSCAN1 (GeneID 7586)	0.97	0.76
ACACB (GeneID 32)	0.99	1.39
SSPN (GeneID 8082)	0.32	0.85
GATA5 (GeneID 140628)	0.59	1.45
DPH2 (GeneID 1802)	0.25	1.11
GRK2 (GeneID 156)	0.29	0.72
EGLN3 (GeneID 112399)	0.28	1.35
H6PD (GeneID 9563)	0.74	0.63
LINS1 (GeneID 55180)	0.78	0.8
CLDN7 (GeneID 1366)	0.45	1.37
OR6B1 (GeneID 135946)	0.66	1.02
SLC39A10 (GeneID 57181)	0.35	1.08
GRIK2 (GeneID 2898)	0.6	1.06
SLC7A1 (GeneID 6541)	0.45	0.47
THOC5 (GeneID 8563)	0.47	1.64
FCER2 (GeneID 2208)	0.76	0.77
SOX13 (GeneID 9580)	0.22	2.42
H4C2 (GeneID 8366)	0.7	0.86
TRNAU1AP (GeneID 54952)	0.28	1.19
ZSCAN32 (GeneID 54925)	0.66	1.02
CIB2 (GeneID 10518)	0.45 (active)	0.69
SPINT4 (GeneID 391253)	0.84	1.21
TIMM8A (GeneID 1678)	0.98	0.4
SULT2B1 (GeneID 6820)	0.59	0.6
HCLS1 (GeneID 3059)	0.81	0.7
TOMM40L (GeneID 84134)	1.03	0.8
SEC24D (GeneID 9871)	0.86	0.8
IFT52 (GeneID 51098)	0.88	0.53
NPC2 (GeneID 10577)	0.77	0.82
EIF5A2 (GeneID 56648)	0.44	0.88
GPR173 (GeneID 54328)	0.81	0.21
